Here are results for one substance from article PMC2775934.

Results are given in words; binding and its absence hold for the method and conditions named. In cells and extracts the contact can be indirect. Binding can be weak; no strength is given.

The target in this assay is T1, protein kinase D1 (human (endogenous in MCF-7)) (UniProt Q15139).
T1 sequence: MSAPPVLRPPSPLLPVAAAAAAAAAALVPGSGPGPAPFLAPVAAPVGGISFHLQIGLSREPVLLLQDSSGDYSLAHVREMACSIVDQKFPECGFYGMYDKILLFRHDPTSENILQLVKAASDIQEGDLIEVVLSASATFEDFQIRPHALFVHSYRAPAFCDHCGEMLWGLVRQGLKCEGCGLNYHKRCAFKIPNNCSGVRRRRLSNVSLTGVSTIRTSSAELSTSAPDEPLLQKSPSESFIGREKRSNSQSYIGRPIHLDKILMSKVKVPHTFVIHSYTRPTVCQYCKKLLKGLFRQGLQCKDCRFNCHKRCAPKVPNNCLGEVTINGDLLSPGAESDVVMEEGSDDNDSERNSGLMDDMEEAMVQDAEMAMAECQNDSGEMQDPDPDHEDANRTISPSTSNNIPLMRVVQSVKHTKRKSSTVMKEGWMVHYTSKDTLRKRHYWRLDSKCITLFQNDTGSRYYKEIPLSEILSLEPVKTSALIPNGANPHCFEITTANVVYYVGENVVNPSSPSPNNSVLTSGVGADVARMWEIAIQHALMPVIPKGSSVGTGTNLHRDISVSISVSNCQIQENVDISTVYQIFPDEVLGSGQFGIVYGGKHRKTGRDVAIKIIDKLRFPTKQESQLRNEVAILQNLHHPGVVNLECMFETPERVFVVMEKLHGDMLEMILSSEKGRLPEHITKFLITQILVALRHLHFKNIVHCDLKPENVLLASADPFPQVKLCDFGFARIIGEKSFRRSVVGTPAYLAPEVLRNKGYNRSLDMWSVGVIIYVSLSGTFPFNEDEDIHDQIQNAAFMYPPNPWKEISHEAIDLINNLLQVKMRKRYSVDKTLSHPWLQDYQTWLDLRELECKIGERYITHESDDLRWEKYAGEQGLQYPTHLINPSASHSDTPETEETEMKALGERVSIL
Description: co-IP; anti-PKD1 immunoprecipitates (1 hour, 4°C, Protein G Sepharose) of soluble lysates in 25 mM Tris-HCl pH 7.4, 150 mM NaCl, 1% Triton X-100, blotted for E-cadherin; MCF-7 cells treated with cathepsin G for 10 hours.

Take “E-cadherin (human (endogenous in MCF-7))”: the binding result is listed as “binds”.
